This note sets out measurements from PubChem BioAssay AID1347423 (Functional Genomics Laboratory (NCATS/FGL), 2020).

The campaign covered roughly 52,000 sequences. About 210 (0.4%) were called active.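 How the source made its calls: active means gene whose silencing raises cell survival under the drug, median off-target-corrected z-score across its silencing RNAs 2 or more; inactive means the rest.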 Some of the results follow.

The assay in a line: Resistance to Poly (ADP-Ribose) Polymerase inhibitor: Gene Identification via Genome-wide siRNA Screen. The note with it: mouse BRCA2 R2336H ES cells, olaparib, CellTiter-Glo viability; stronger effect = higher value. An outline of the steps:
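Mouse BRCA2 R2336H ES cells were reverse-transfected with siRNA (20 nM final), treated at 48 h with 500 nM olaparib, and read by CellTiter-Glo after 72 h. Scores: MAD-based z per siRNA, median per gene, seed off-target correction.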
On the technique in general: Cellular ATP, detected with luciferase, serves as a proxy for viable cell number.
Consider GGUACCUCUACACAGAUGATT against Fgf21, for which the z-score was inactive: -0.674.

With CCCUUGGAGGAAGCUAACUTT against Pde2a, the z-score is active: 1.27.

Turning to “GGCAAGAUUACUGUUGUAGTT against 1110007M04Rik”, the z-score was inactive: 0.173.

As to “CGGAGCAAAUUAGGCUCUUTT against 4930402H24Rik”, the z-score is inactive: 0.451.

For “GGGAAUUAGGGCUCAAUGATT against D330023I21Rik”, the z-score was inactive: -1.13.

As to CCCUAUUUGUGAGAAUGAATT against Gldc, the z-score was inactive: 0.166.

For GCCACAAGAUUCAGACCCATT against Elac2, the z-score is inactive: -0.54.

On to GGGCGUGAAUUCAGAGAUUTT against Pcdhgb5, for which the z-score was inactive: -0.457.

As for “GGAUGAUCAUUUUGUUGCATT against 2700085E05Rik”, the z-score was inactive: 0.217.

Consider CCUCCAUGCUUGUUGUAGCTT against Olfr1031, for which the z-score was inactive: 0.95.

For the sequence “GGAGGAUGUCUUACCAUGGTT against A830053O21Rik”, the z-score is inactive: 2.03.

As to “GGUUUCCAGAAGAAGGUUCTT against 1700009P03Rik”, the z-score was inactive: 0.749.

With GGUGGAAAAUGGUUGGUUUTT against Mfap3, the z-score is inactive: 0.214.

For GGCCUUUAACUUGUAAAUATT against Hlx1, the z-score is inactive: -0.0976.

Consider “GGAGCUUGCUGGAUUCAUATT against 6330407D12Rik”, for which the z-score was inactive: 0.315.

On to “GGUGUAUAGCUGUUGUGGGTT against 2010308M01Rik”, for which the z-score is inactive: 0.0946.

For GGGUUUUUUCAACCAGAAUTT against Hyal2, the z-score is inactive: 0.779.

For CCUGUGCACUGAAAGCACGTT against Mogat2, the z-score is inactive: 0.831.

As for GGCUCGGUUUCAGUGUACUTT against Zfp371, the z-score was inactive: 1.41.

Take “GCCAAUAAAGUCGGUGAAATT against E130307C13”: the z-score was inactive: -1.08.

With GGCUAUCAUGUUACCUAGGTT against Olfr25, the z-score is inactive: 0.88.

Turning to GGUGAAGAGAGGUUUUUUUTT against Siat8b, the z-score is inactive: 0.691.

In the case of GGAAAAGUGGCUUUCAUUATT against Decr1, the z-score is inactive: -0.378.

With CCUAGCCUAGCUUGGAGAGTT against Fbxl12, the z-score was inactive: -0.0387.

Take GGCUGCUAUCAUGGAAUUATT against Ppp2cb: the z-score was inactive: -0.876.

For the sequence CGUAGCUAUUCUGGUUGUCTT against H2-Q6, the z-score was inactive: -1.18.

On to “GGAAGAGAUAUCUGAACUUTT against 1110030H02Rik”, for which the z-score is inactive: 2.17.

For the sequence GGGAGCAGUCUUCCCUCAUTT against Cox8a, the z-score is inactive: -1.35.

Consider GGAAAGAACGACCAUAUUUTT against Pik3cb, for which the z-score is inactive: -0.501.

GCUUCGAGAACUUUCUCCCTT against Nrtn: the z-score was inactive: 0.164.

Regarding GCAAGUGCACAUUAACCGGTT against Ptprr, the z-score is inactive: 0.916.

Take GGCGGAAAUUGUGAAGAGGTT against Aes: the z-score was inactive: -2.11.

For GUUCGGUACAACUUUUCUGTT against Alx4, the z-score was inactive: 0.749.

On to CGACAUCGAAGACAUGCUCTT against Srebf1, for which the z-score is inactive: 0.194.

As for CGAUCUAUAUGAUGGGUGUTT against Olfr609, the z-score was inactive: 0.862.

As to “GGUACAACUGCUCAUUUUUTT against 4930418P06Rik”, the z-score was inactive: -0.202.

On to GGUCAAAAACCACAGAAUATT against Mobk1b, for which the z-score is inactive: 0.382.

Take GGAGCAGGAAUCAUUGACGTT against Chi3l3: the z-score is inactive: 0.454.

As to “GGAAAAGCAGAGAAGAUAUTT against 6620401K05Rik”, the z-score is inactive: -3.29.

In the case of GGUUUCGUAUAAAUUCUCUTT against Ank, the z-score is inactive: -0.243.

With “CCAUUCGGACCAAAGUGUATT against 4930563C04Rik”, the z-score was inactive: -1.48.

Turning to GGUUGGUUAAUCCAACCAGTT against Fprl1, the z-score is inactive: 1.54.

Turning to GGACUAAGCCUGAAUGUGUTT against Zdhhc5, the z-score was inactive: -0.814.

Turning to GGAUGACUUGAUUAUCUUUTT against Adrm1, the z-score was inactive: 0.0749.

As for CGUUUUCACAUUCGGUGGATT against Akp2, the z-score was inactive: -0.0494.

Consider GGCACUUAAGUUUCAUAAGTT against Qars, for which the z-score was inactive: -0.32.

GGAAAUCGAUAGUUUCUUCTT against Olfr1302: the z-score is inactive: 0.458.

For the sequence GCCUUGACCUGAUUUCUACTT against Tas2r131, the z-score is inactive: -0.0568.

On to GGUGCCCUACAGUGAGAUATT against Rpl13, for which the z-score is inactive: -2.33.

Regarding GGCGGGUACAUAAGAAUCUTT against Tusc2, the z-score is inactive: 1.83.

For GGAGUCUGUGGAUAGUGUATT against Creb1, the z-score is inactive: -1.74.

On to “GGUAAUCACACUCAGUGUCTT against 1810043G02Rik”, for which the z-score is inactive: 0.16.

Turning to GCAAAAGGGAUUCCUCGAUTT against Zdhhc14, the z-score is inactive: -0.241.

As for GGAACAAGCAAGUCAAACATT against Olfr770, the z-score is inactive: 0.134.

As to GGUUUUUGCCAGUAAUAACTT against B4galt4, the z-score is inactive: 0.665.

With “GCAGCUAAGGUAUCUUCAUTT against 9930021J03Rik”, the z-score is inactive: -0.811.

Take GGGUGAGGAGACAGAAUUCTT against Dnajc5: the z-score was inactive: -0.0109.

On to GGAUUAUUCAAGGACUUUGTT against Bmf, for which the z-score is inactive: -0.000445.

On to GGCCAAACUUAAUCAACCUTT against D3Wsu161e, for which the z-score was inactive: 0.582.

For the sequence GCUACUCAGUCAUUGAGCCTT against Tatdn2, the z-score was inactive: -1.19.

Take “GGAGCUAUGAUGGCGAUUUTT against 4930403J22Rik”: the z-score is inactive: -2.38.

GCAACAUUGAUUCUAGGAUTT against Olfr1391: the z-score is inactive: 0.698.

Consider GGCAGUUAACACUUAAUGATT against Foxp2, for which the z-score was inactive: 1.04.

Take CAAUCCUCAACGAUUACAUTT against Ncor1: the z-score is inactive: 1.9.

Consider GGUGCAUGUCUUCAUCCACTT against Rnase12, for which the z-score is inactive: -0.41.

For the sequence “GGCCAUUUAAUUUCAUGGCTT against 2810030E01Rik”, the z-score is inactive: 1.18.
